Experimental findings from PMC4117788, “Structural dynamics of the two-component response regulator RstA in recognition of promoter DNA element” (Nucleic Acids Research, 2014) are described below.

Results are given in words; binding and its absence hold for the method and conditions named.

This assay deals with Klebsiella pneumoniae RstA C-terminal DNA-binding domain (Klebsiella pneumoniae) (UniProt A6T8N1). Briefly: NMR 15N relaxation (overall rotational correlation time); kpRstA DBD free (pH 6) and with DNA-16a (pH 6.5); 20 mM sodium phosphate, 50 mM NaCl, 1 mM EDTA, 1 mM DTT; 800 MHz; both purified.

B1: Klebsiella pneumoniae RstA C-terminal DNA-binding domain (domain or fragment, UniProt A6T8N1 131-236)
chain: TLTPHKTISFGSLTIDPVNRQVLLGGENVALSTADFDLLWELATHAGQIMDRDALLKNLRGVTYDGMDRSVDVAISRLRKKLLDNATEPYRIKTVRNKGYLFAPHA
Consider B1, for which the binding entry is on record as “no binding (tested: 0.1–1.0 mM protein samples)”.
